Measurements: article PMC11077081
Results are given in words; binding and its absence hold for the method and conditions named. In cells and extracts the contact can be indirect. Some entries that bind do so weakly or less than the wild type.

Amino acid sequences for entries named in this document (tags omitted).
UniProt Q7JJ13: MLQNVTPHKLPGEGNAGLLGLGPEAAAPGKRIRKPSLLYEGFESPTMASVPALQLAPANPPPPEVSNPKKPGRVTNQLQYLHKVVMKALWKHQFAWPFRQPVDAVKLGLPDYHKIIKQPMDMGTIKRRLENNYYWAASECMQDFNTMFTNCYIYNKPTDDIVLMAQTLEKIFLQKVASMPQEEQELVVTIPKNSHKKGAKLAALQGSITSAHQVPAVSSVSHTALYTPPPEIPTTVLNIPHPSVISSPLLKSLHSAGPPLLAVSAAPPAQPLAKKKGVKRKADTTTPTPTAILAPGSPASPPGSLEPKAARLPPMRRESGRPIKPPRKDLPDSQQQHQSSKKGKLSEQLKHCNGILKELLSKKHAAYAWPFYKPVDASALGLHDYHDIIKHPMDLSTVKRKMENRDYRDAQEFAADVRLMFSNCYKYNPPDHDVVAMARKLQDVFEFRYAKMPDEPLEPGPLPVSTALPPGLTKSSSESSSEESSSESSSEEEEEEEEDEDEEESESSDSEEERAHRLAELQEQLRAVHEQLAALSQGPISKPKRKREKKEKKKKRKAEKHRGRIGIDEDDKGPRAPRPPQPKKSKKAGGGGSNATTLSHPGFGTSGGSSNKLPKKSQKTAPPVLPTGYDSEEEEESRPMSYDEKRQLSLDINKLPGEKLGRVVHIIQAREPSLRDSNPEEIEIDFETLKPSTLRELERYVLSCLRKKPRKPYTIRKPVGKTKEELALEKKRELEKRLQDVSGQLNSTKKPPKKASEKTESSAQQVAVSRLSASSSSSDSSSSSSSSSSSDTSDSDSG

Molecular target: BRD2 (mouse (endogenous in CH12F3-2A)) (UniProt Q7JJ13)
Experiment: co-IP; nuclear extracts from CIT-activated CH12F3-2A cells immunoprecipitated with BRD2 or BRD4 antibodies or control rabbit IgG (Dynabeads Protein G); Western blot of the precipitated proteins

binding: binds
B1: CTCF (protein, UniProt Q61164 1-736)
chain: MEGEAVEAIVEESETFIKGKERKTYQRRREGGQEEDACHLPQNQTDGGEVVQDVNSSVQMVMMEQLDPTLLQMKTEVMEGTVAPEAEAAVDDTQIITLQVVNMEEQPINIGELQLVQVPVPVTVPVATTSVEELQGAYENEVSKEGLAESEPMICHTLPLPEGFQVVKVGANGEVETLEQGELPPQEDSSWQKDPDYQPPAKKTKKTKKSKLRYTEEGKDVDVSVYDFEEEQQEGLLSEVNAEKVVGNMKPPKPTKIKKKGVKKTFQCELCSYTCPRRSNLDRHMKSHTDERPHKCHLCGRAFRTVTLLRNHLNTHTGTRPHKCPDCDMAFVTSGELVRHRRYKHTHEKPFKCSMCDYASVEVSKLKRHIRSHTGERPFQCSLCSYASRDTYKLKRHMRTHSGEKPYECYICHARFTQSGTMKMHILQKHTENVAKFHCPHCDTVIARKSDLGVHLRKQHSYIEQGKKCRYCDAVFHERYALIQHQKSHKNEKRFKCDQCDYACRQERHMIMHKRTHTGEKPYACSHCDKTFRQKQLLDMHFKRYHDPNFVPAAFVCSKCGKTFTRRNTMARHADNCAGPDGVEGENGGETKKSKRGRKRKMRSKKEDSSDSEENAEPDLDDNEEEEEPAVEIEPEPEPQPQPPPPPQPVAPAPPPAKKRRGRPPGRTNQPKQNQPTAIIQVEDQNTGAIENIIVEVKKEPDAEPAEGEEEEAQAATTDAPNGDLTPEMILSMMDR
